Laboratory results: patent US20090203038A1
No constants are given. Whether binding was seen depends on the method and setting. Some results given as binding are weak or reduced against the parent protein; the word gives no strength.

Molecular target: cBNP(1-32) coupled to azlactone beads (human)
Test: KinExA, antibody passed over cBNP(1-32) coated azlactone beads, detected with Cy5: F(ab')2 goat anti-mouse IgG

binding: binds
B1: 3-631-436 WT mAb (antibody of hybridoma cell line 3-631-436, A.T.C.C. Accession No. PTA-6476) (antibody, V domains shown)
VH: QVQLQQPGAELVRPGASVKLSCKASGYTFTSYWMNWVKQRPEQGLEWIGRIDPYDSETHYNQKFKDKAILTVDKSSSTAFVQLTSLTSEDSAVYYCVSDGYWGAGTTCTVSS
VL: DVVMTQTPLTLSVTTGQPASISCKSSQSLLDSDGKTYLNWLFQRPGESPKLLIYVVSKLESGVPDRFTGSGSGTDFTLKISRVEAEDLGVYYCLQATHFPWTFGGGTKLEIKR
